Measurements reported in PubChem BioAssay AID1053208 (Peter MacCallum Cancer Centre, 2014)

Aim: 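Genes whose silencing cuts survival of bone tumour cells only with doxorubicin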 (primary screen)
Cell system: mouse osteosarcoma cells, early-passage culture from an engineered mouse model of fibroblastic bone tumour
Reagent: siRNA pool against mouse genes, 40 nM
Time to read-out: about 120 h (48 h before drug, then 72 h with drug)
Treatment: doxorubicin 100 nM for 72 h, roughly 30-40% inhibitory dose
Measurement: 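Viability read as ATP luminescence after 72 h of 100 nM doxorubicin or none, duplicate wells averaged, scaled to non-targeting siRNA, then expressed as robust z-scores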
Reading the numbers: viability z-score with doxorubicin: higher = more viable cells under doxorubicin; viability z-score without drug: higher = more viable cells with knock-down alone
Active means: 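Called active if knock-down leaves viability unchanged without drug (z within -2 to 2) but lowers it with doxorubicin (z at or under -2)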
The whole screen tested about 17,000 reagents; this is an unselected part. Of all reagents, 788 (4.7%) got an active call. 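Calls rest on z-score classes alone; an extra cut-off of viability at most 70% of control was not applied to them.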 A number with no mark means an inactive call. Further read-outs or replicates are left out here.

Noc3l [SID152304624]
- combined z-score class: no change with or without drug
- viability z-score with doxorubicin: 0
- viability z-score without drug: 0

Suox [SID152277336]
- combined z-score class: no change with or without drug
- viability z-score with doxorubicin: -0.67
- viability z-score without drug: -1.01

Hspa5 [SID152305384]
- combined z-score class: no change with or without drug
- viability z-score with doxorubicin: 0.22
- viability z-score without drug: 1.18

C1qtnf7 [SID152320502]
- combined z-score class: no change with or without drug
- viability z-score with doxorubicin: 0.9
- viability z-score without drug: 0.67

Hoxd11 [SID152335225]
- combined z-score class: no change with or without drug
- viability z-score with doxorubicin: -0.11
- viability z-score without drug: -1.85

Or52e15 [SID152310325]
- combined z-score class: no change with or without drug
- viability z-score with doxorubicin: -1.12
- viability z-score without drug: 0.17

Srek1ip1 [SID152274258]
- combined z-score class: no change with or without drug
- viability z-score with doxorubicin: -1.12
- viability z-score without drug: -0.84

Clcc1 [SID152304527]
- combined z-score class: no change with or without drug
- viability z-score with doxorubicin: -0.45
- viability z-score without drug: -0.51

Atl2 [SID152338516]
- combined z-score class: no change with or without drug
- viability z-score with doxorubicin: 0.11
- viability z-score without drug: -0.84

TSGA8 [SID152323854]
- combined z-score class: low cell count with doxorubicin only (active)
- viability z-score with doxorubicin: -2.36
- viability z-score without drug: -0.51

Arsg [SID152314847]
- combined z-score class: no change with or without drug
- viability z-score with doxorubicin: -1.12
- viability z-score without drug: 0.67

C130070B15Rik [SID152280617]
- combined z-score class: no change with or without drug
- viability z-score with doxorubicin: -0.45
- viability z-score without drug: 0

Fech [SID152311920]
- combined z-score class: no change with or without drug
- viability z-score with doxorubicin: 0
- viability z-score without drug: -1.18

Slc11a2 [SID152286525]
- combined z-score class: no change with or without drug
- viability z-score with doxorubicin: -0.22
- viability z-score without drug: -0.51

Bivm [SID152287784]
- combined z-score class: no change with or without drug
- viability z-score with doxorubicin: 1.01
- viability z-score without drug: 0.84

Slc9b1 [SID152318463]
- combined z-score class: high cell count without drug only
- viability z-score with doxorubicin: 1.24
- viability z-score without drug: 2.02

Sptlc3 [SID152277445]
- combined z-score class: no change with or without drug
- viability z-score with doxorubicin: -0.34
- viability z-score without drug: -0.67

Cdk3 [SID152292348]
- combined z-score class: low cell count with doxorubicin only (active)
- viability z-score with doxorubicin: -2.36
- viability z-score without drug: -1.18

Rela [SID152329730]
- combined z-score class: no change with or without drug
- viability z-score with doxorubicin: -0.45
- viability z-score without drug: 0.34
